Laboratory results published in paper PMC9449696.

Target: T1, GST-Spastin (UniProt B2RYN7)
T1 sequence: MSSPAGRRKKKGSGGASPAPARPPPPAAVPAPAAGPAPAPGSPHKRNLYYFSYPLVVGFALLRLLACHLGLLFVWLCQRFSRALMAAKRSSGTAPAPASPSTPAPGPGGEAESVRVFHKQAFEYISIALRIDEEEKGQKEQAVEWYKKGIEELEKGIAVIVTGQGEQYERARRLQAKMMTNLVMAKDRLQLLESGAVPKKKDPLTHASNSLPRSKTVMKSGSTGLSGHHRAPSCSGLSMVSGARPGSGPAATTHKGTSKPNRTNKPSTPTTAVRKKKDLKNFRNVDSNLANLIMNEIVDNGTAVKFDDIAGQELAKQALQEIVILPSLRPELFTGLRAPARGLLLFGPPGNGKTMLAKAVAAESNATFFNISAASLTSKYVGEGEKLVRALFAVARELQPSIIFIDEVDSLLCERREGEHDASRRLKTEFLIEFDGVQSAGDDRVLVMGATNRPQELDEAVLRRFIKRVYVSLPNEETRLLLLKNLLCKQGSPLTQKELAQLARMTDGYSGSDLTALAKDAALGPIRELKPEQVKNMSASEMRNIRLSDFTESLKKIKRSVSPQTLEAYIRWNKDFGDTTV
Test: affinity purification with mass spectrometry; GST-Spastin on beads used to pull down proteins from rat spinal cord lysate; incubated overnight at 4°C; precipitated proteins resolved on a gel, digested with trypsin, LC-MS/MS; only the target purified

B1: Protein disulfide isomerase A6 (PDIA6), endogenous (protein, UniProt Q63081 20-440)
chain: LYSSSDDVIELTPSNFNREVIQSDSLWLVEFYAPWCGHCQRLTPEWKKAASALKDVVKVGAVNADKHQSLGGQYGVQGFPTIKIFGANKNKPEDYQGGRTGEAIVDAALSALRQLVKDRLGGRSGGYSSGKQGRGDSSSKKDVVELTDDTFDKNVLDSEDVWMVEFYAPWCGHCKNLEPEWAAAATEVKEQTKGKVKLAAVDATVNQVLASRYGIKGFPTIKIFQKGESPVDYDGGRTRSDIVSRALDLFSDNAPPPELLEIINEDIAKKTCEEHQLCVVAVLPHILDTGATGRNSYLEVLLKLADKYKKKMWGWLWTEAGAQYELENALGIGGFGYPAMAAINARKMKFALLKGSFSEQGINEFLRELSFGRGSTAPVGGGSFPNITPREPWDGKDGELPVEDDIDLSDVELDDLEKDEL
B1 was tested, and the binding was “binds”.

Results are given in words; binding and its absence hold for the method and conditions named. Binding seen in cells or lysates may run through a third protein. Here binding means that the protein was enriched with, or labelled near, the bait; the list need not be complete. Where a sequence is shown, tags or fusion partners need not be part of it.
